Results published in doi:10.1101/2025.08.28.672867.

Chains of the proteins cited; added tags and fusions are not shown.
UniProt O60016: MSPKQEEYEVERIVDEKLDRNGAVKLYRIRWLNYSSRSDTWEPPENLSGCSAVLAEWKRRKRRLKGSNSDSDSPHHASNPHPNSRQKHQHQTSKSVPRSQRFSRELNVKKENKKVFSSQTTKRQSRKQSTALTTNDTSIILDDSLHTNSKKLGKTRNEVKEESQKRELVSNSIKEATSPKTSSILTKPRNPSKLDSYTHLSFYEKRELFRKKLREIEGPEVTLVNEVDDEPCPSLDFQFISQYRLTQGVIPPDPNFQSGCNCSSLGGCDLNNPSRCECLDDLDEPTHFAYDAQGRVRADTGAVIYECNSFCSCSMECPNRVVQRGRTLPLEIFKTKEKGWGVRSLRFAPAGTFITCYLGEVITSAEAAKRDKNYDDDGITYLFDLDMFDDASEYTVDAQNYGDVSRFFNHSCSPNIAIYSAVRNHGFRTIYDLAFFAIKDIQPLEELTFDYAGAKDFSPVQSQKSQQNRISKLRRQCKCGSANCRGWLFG

B1: Rik1-myc (protein, UniProt Q10426 1-1040)
chain: MALCVHSFWATAVDTATSCHFISSENCLVLLQALKINIYLCSEVHGLQFFTSIPLFSTVKHIRPYRPPGLDRDYLFVVLNDDTYFSIYWDEDYQKVIVDHPPVRYRVTFPWNRNAKSYCLVDLRMRAIFLSIDEISMICIRILSAEERLKTGRSIDSGFPFSFPVHLIYDMCILNDSSTPTLVVLHSDGLDCYVTAFLLDLSSKSLGKGIRLFERVKPSMIMPFGKRGLLVFESLFIHCMYRGNFVTINGPCTTYMHWTPLKGQKMHYIVCDTNGYLFGVYSSILGKNKWSLVMERLPIPPFDFITSLNSIHEGLLFIGSKNSESKLINLSTLKDVDSIPNLGPIHDLLVLKNDIEKSFLVCAGTPRNASLIYFQHALKLDILGQTKISGILRAMVLPSYPEHKLFLGFPSETVAFNIKEDFQLELDPSLSTKERTIALSGTNGEFVQVTSTFLCIYDSAKRSRLVYIEKITNAACYQEYSAIVINGTALAIFKKDTEVARKVFESEISCLDFSAQFQIGVGFWSKQVMILTFSDNSSISCAFQTNVPSLPRNIILEGVGVDRNLLLVSSGSGEFKSYVLFKNNLVFSETKHFGTTPVSFRRFTMNIGTYIICNNDCPHMVYGFNGALCYMPLSMPQSYDVCQFRDNSGKDFLISVSLGGLKFLQLNPLPELTPRKVLLEHVPLQAIIFQNKLLLRTLENRYEDYESYKENYHLELVDSYDDNSFRVFSFTENERCEKVLKINESSLLVGTSIIEQDKLVPVNGRLILLEFEKELQSLKVVSSMVLSAAVIDLGVYNDRYIVAFGQQVAIVKLTEERLMIDSRISLGSIVLQLIVEGNEIAIADSIGRFTIMYFDGQKFIVVARYLFGENIVKAALYEGTVYIIATNSGLLKLLRYNKDAKNFNDRFICESVYHLHDKVSKFQNFPITNTNSFLEPKMLFATEIGAIGSIVSLKDKELELEELTRKIRKLKFSYLSSMDYESIEADLISPVPFIDGDLVIDVKRWASSELFRLCRSVEHRESLNSYQKVQALLEEIQSLC
B2: Raf1 in S. pombe cells (protein, UniProt O74910 1-638)
chain: MTNSSPRVKRRTDTQYLHSVSSKLPKVDFDTNNEEFFEEEFEIYDPFYRAELPCPKPSLSISKHSIAKVPSNVNKRLELQLLLTSGTFLPNSRPYLSERVRKHTHLLSNSITGDDKPSLIHVDFTPEECFILQEAKLKFGPVNSVQFNDAYSTHISPKLPGRAYEDCQKFEIDNPSLSPVDKHGAIILRTYKKNKKLLPDYLKSFYNAGSSYFQREQVHQLMDGESVFFLKPWKHFNETSGDTVCVAYNPLCEKFALGSTAQDGAYNRLGNLWIGDFHSETIQSLESHYKLNQVGEKEYSTISDLCFSKGNLFLYTGAFDNAVKVWDMEGNLCGIFNAPTDYIHKLALSDDDLLAVACKNGYGYLLSTDNSTGEILTSANLIYPEALEKGYSASLIEFSNFLGRSSDKVIIGYDSFHTSNNRGCLALFDASTASFVQKFNTADEAFTSLYMHPSQVGFVASSNTLSNGRVYYLDTRMYKVCLNFTTTQKDINHATISNSGILVTSSGTDNQTFVWDSRKPDKPLSLLKHGKTKMIHFDGANEEEVDAGINMAQWQPKGNLFVTGGSDGIVKVWDLRLNNPFIQNFTEMNSAITYGGFSEDASKLTVCCVGGDVNMYSLGNDNGNKFGEFRIIENRLLT
B3: Raf2 in S. pombe cells, O74560 1-636 (protein)
chain: MPPVRAEKKRKTDLIEQVCVTNKAGELVDLEDVLEYGPYSLTGILSSEKDEQEPLFDESIVLGYSIKISPVWTYNLKDVPEKETMSIWIVTPQRRYGILSPSSEYKAIYEQISEKNRLFYLIKTKFKDDMISGTLEDYDNYIEVLKEKLELPSCFQAILLVQKHIRFLLTQMVATSSLHVWSESPFFIRIRSSYEHLILQINKNIYNARQERKKSKLSSNNPSDNNTTMKSSLNQALTLINLPEQPFSISSPTATPQLGVVKRTSPLRFPLNDIWLSGLRIVDPNIESISLWKRIQVSTSPKHQRYISLQEVCSVIAQQLQITNLEALNKLSSHGETLLQIMHTAFTWRGTKLFNDIKHAIGFRSSVQQARSQFRGYCYDYLFMHCNNGEKTSLHLLRTLICMKLDFSNAQLAAKILFHFLLFDIGSGLSGSDYTYEQYINHSAVAFSFTEEIFEKNFVTVLPDFVKLFSISFGYWPAFSFYDELLKLLRNKYPKVYSSTPNLCDQVWLDRTNLFPCNRSTRSTLPYRPTKLLDLASASSCLSKKETDFKQDTGLYSYNLEKVEALKVSPDLQTGIWSCPVQNCLYFAVCDNPYKPSQVIYDHLLGHVDSKFIFKTPSNSVRSFTNKLEHIMYNIN
B4: Cul4-K680R (protein, UniProt O14122 1-734)
chain: MPPEAKRIVVKGFDPRKSRQRQETYYVTMIDRLNMALQVVMAGLGLKTGYQELYSGVENLTRADQASRCFNILQHHMSSGIQLLKDSAESFIQLEGTETDTNACTVVVGCWNKWLERVEIVQNIFYYMDKTFLSHHPDYPTIEELSLSLFREKLMAVKNIQIPFLNSLLQSFENLHSSKSTDHAYLQDAMLMLHRTEMYSSVFVPMYLVMLSRFYDTESSQKIQELPLEEYLEYAMSSLEREDAYVEKFDIVRDKKSIRETVQRCLITSHLDTLTKGISQFIEKRDAHSCKLLYALLQFNHETEYLIQPWSDCLVDVGFKLVNDESKDDTLVQELLSFHKFLQVVVDESFLHDETLSYAMRKAFETFINGAKGSQREAPARLIAKYIDYLLRVGEQASGGKPLKEVFSEILDLFRYIASKDIFEAYYKLDIAKRLLLNKSASAQNELMLLDMLKKTCGSQFTHSLEGMFRDVNISKEFTSSFRHSKAAHNLHRDLYVNVLSQAYWPSYPESHIRLPDDMQQDLDCFEKFYLSKQVGKKISWYASLGHCIVKARFPLGNKELSISLFQACVLLQFNNCLGGEGISYQDLKKSTELSDIDLTRTLQSLSCARIRPLVMVPKSKKPSPDTMFYVNEKFTDKLYRVKINQIYLKEERQENSDVQEQVVRDRQFELQASIVRVMRQKEKMKHDDLVQYVINNVKDRGIPLVSDVKTAIEKLLEKEYLEREDNDIYTYVT

Assays:
[1] = target: FLAG-Clr4 (N-terminal 3×FLAG), wild type (S. pombe) (UniProt O60016); assay: affinity purification with mass spectrometry; FLAG-Clr4 immunoprecipitations from S. pombe lysates (wild-type, cul4-K680R and cul4–1 cells); TMT quantitative mass spectrometry
[2] = target: FLAG-Clr4 (N-terminal 3×FLAG), wild type (S. pombe), O60016; assay: as above; conditions: remark: other sources report otherwise

Binder | binding [1] | binding [2]
B1 | binds | –
B2 | binds | –
B3 | – | binds
B4 | binds | –

No constants are given. Whether binding was seen depends on the method and setting. In cells and extracts the contact can be indirect. Here binding means that the protein was enriched with, or labelled near, the bait; the list need not be complete. For some of these results: Tags and fused reporters may be left off the sequences shown.
